Source: US20230041563A1, “N-(1,3,4-OXADIAZOL-2-YL)ARYLCARBOXAMIDES OR SALTS THEREOF, PREPARATION METHODS, HERBICIDAL COMPOSITIONS AND USES THEREOF” (priority 2018, published 2023)
Some entries share one result that the patent states for a list of compounds.

Tested on: gramineous weed (Echinochloa crusgali, Leptochloa chinensis or Digitaria sanguinalis)
Assay: Post-emergence activity on gramineous weed, comparison between compounds
Type: in vivo
Details: at low doses
Description: Experiment on weeding effect in post-emergence stage: monocotyledonous and dicotyledonous weed seeds (Descurainia sophia, Capsella bursa-pastoris, Abutilon theophrasti, Galium aparine, Stellaria media, Lithospermum arvense, rorippa indica, Alopecurus aequalis, Beckmannia syzigachne, Sclerochloa dura, Phleum paniculatum, Bromus japonicus, Aegilops tauschii, Phalaris arundinacea, Amaranthus retroflexus, Chenopodiaceae, Commelina communis, Sonchus arvensis, convolvulus arvensis, Cirsium setosum, Solanum nigrum, Acalypha australis, Digitaria sanguinalis, Echinochloa crusgalli, Setaria viridis, Setaria glauca, Leptochloa chinensis, Monochoria vaginalis, Sagittaria trifolia, Scirpus juncoides, Cyperus rotundus, Cyperus iria, Cyperus difformis, Fimbristylis, Portulaca oleracea, Xanthium sibiricum, Pharbitis nil) and major crop seeds (wheat, corn, rice, soybean, cotton, oilseed rape, millet, sorghum, potato, sesame, ricinus) were placed in plastic pots filled with soil, then covered with 0.5-2 cm of soil, allowed to grow in a good greenhouse environment. After 2 weeks of sowing, the test plants were treated in the 2 to 3 leaf stage. […] After the application, the plants were cultured for 3 weeks in the greenhouse, and then the experimental results of the weeding were counted. […]

SMILES | activity on the gramineous weed relative to Compound 1-2 (versus Compound 1-2) | activity on the gramineous weed relative to Compound 1-1 (versus Compound 1-1)
CC[S+]([O-])c1c(C(F)(F)F)ccc(C(=O)Nc2nnc(C)o2)c1F (centres unmarked) [Compound 1-5] | more than 2 times | –
CCSc1c(C(F)(F)F)ccc(C(=O)Nc2nnc(C)o2)c1F [Compound 1-4] | – | more than 2 times
